Laboratory results as given in article PMC10163288.
The other results are listed elsewhere or left out.

B1: il10ra_site1_normal_mot_6792f2186577ebd01aa11eb855ed7b57_0001_af2_000000149_0001_1_16_H_._HHH_b1_00312_af2_0001_0000400012_0000002_0_af2pred_0001 (protein)
chain: SSSSSSDEEEELEELLEELEKTTDPREIREIYKEIVKLAREADDERARRKALEIFLELSSSSSSS
B2: il10ra_site1_normal_mot_HHH_b2_07440_af2_000000021_0001_1_18_H_._HHH_b1_03229_0001_0000400026_0000002_0 (protein)
chain: SSSSDEEHQEVLRLSREAFRLALRGNPEEARRVLEEAIEIAREIGDERALRMLEELLKTQSSSSS
B3: il10ra_site1_normal_mot_b26a303360aa2756ef5b79665ce52f45_0001_000000179_0001_1_11_H_._HHH_b2_07383_af2_0001_0000200017_0000001_0_af2pred_0001 (protein)
chain: SSSSDSREVVELIREALELLLEGDKEQAEEVLEEAREIAEELNNPLAEHLIELLLRHIRNSSSSS
B4: il10ra_site1_sap_25_mot_5aed09890fd46f02a60ca541bcb2e05a_0001_1_000000092_0001_15_31_H_._01923d483164837742cf829bee572cc5_0001_0001_0000100006_0000002_0_0001_af … (protein)
chain: SSSSDEELEERVEELLEEAKHVDERRLAHILARALRIAAENNNPELIRLVEKVAAELLLRSSSSS
B5: il10ra_site1_sap_15_mot_05ca327611f5605f0dd8494b449afcbf_0001_1_000000248_0001_35_51_H_._HHH_b1_05090_0001_0000300009_0000001_0_0001 (protein)
chain: SSSSSAEELVKEAATRIYELFRNGNPEEAEELAEEVRERLEELGNPQLANLIRVLLKLLKSSSSS
B6: il10ra_site1_normal_mot_HHH_b2_00943_af2_000000149_0001_1_17_H_._HHH_b1_00387_0001_0000600017_0000002_0 (protein)
chain: SSSSDLAELLLRQALKALRNAGDEEAVRRVEEIIEEYEEKGDERLLQEALRLAVELAQEELSSSS
B7: il10ra_site1_sap_15_mot_HHH_b2_02053_af2_000000006_0001_3_19_H_._HHH_b2_05903_0001_0000800036_0000001_0_0001_af2pred_0001 (protein)
chain: SSSSSSDRDERAVRLLLRAAKLVEDEELVKAALRLAEQVARAAGDEEAEKLVEEVKEELSSSSSS
B8: il10ra_site1_sap_15_mot_HHH_b2_08265_af2_000000206_0001_22_38_H_._HHH_b2_03204_af2_0001_0000100004_0000001_0_0001 (protein)
chain: SSDDMLAQAIIHYARAMLENGLIDEEEAEEIIRLAEEASEKDDEELIVEVARLLAEVIRKVATSS
B9: il10ra_site1_normal_mot_HHH_b1_06994_000000193_0001_40_55_H_._HHH_b2_08260_0001_0000200016_0000001_0 (protein)
chain: SSSSSSDEVEELAEEARRLAEEEGDEERAELVEAALRFYEQVGSEFFRESLRFLLEALSSSSSSS
B10: il10ra_site1_sap_34_mot_HHH_b1_06762_000000027_0001_42_56_H_._HHH_b1_03748_af2_0001_0000600013_0000001_0_0001_af2pred_0001 (protein)
chain: SSSSDSTERLLELIRRARELLENGNPEEAREVLEEAREIAEENNDYLTLELLRKLEEELESSSSS
B11: il10ra_site1_normal_mot_HHH_b2_01397_000000078_0001_23_39_H_._HHH_b1_01677_0001_0000100006_0000001_0 (protein)
chain: SSSSSSDERAVRRLLHAARDIEDPEYVELTLRFARALAEDTNNEELQELVERVEEELKSSSSSSS
B12: il10ra_site1_normal_mot_HHH_b1_05609_af2_000000134_0001_1_18_H_._HHH_b2_05432_0001_0000300041_0000001_1 (protein)
chain: SSSSDEEVIQEVLELLREIFRLLLRGNEEEAKRVLEEVKELAEKYNNEELERAVEIYEEAASSSS
B13: il10ra_site1_sap_16_mot_HHH_b1_06789_af2_000000041_0001_1_20_H_._HHH_b1_06879_af2_0001_0000300030_0000001_0_0001 (protein)
chain: SSSSSDNEEALRLSLEAFRLALRGDPEEARRVLEEALELAEEAGNERLARLIEDMLRLLSSSSSS
B14: il10ra_site1_sap_12_mot_HHH_b2_03425_000000200_0001_22_39_H_._HHH_b1_00059_0001_0000100004_0000001_0_0001 (protein)
chain: SSSSDEEREELEELIEELERLLKNGDPEEALRVAQRAIRLAFQLNDPELLRELWEVIKRNFSSSS
B15: il10ra_site1_sap_14_mot_a4073ed34bad1529e7d46a7d39fa26d0_0001_af2_000000058_0001_1_11_H_._HHH_b2_04068_0001_0000200015_0000001_0_0001 (protein)
chain: SSSSAEEIFEAVLEALRLAAERNDEEAFRELLELSIRWVERGDPELEEELEELAKEILERLSSSS
B16: il10ra_site1_normal_mot_HHH_b2_04945_000000076_0001_1_19_H_._HHH_b2_05056_0001_0000200011_0000002_0 (protein)
chain: SSSSTDELFEEVRRIIEEAVRLYREGNPEEARRLVEEALKEAEELNNLALVWSLEHLLRDLSSSS
B17: il10ra_site1_sap_24_mot_HHH_b2_00622_af2_000000153_0001_40_57_H_._1ad9cd31332199d645683f25bccb3f2f_0001_af2_0001_0000400010_0000001_0_0001 (protein)
chain: SSSSSDEEAEEQVEELLEEAKRIEDREEVLRLLIEANRIAFRAGNDELQREIWRVAQELSSSSSS
B18: il10ra_site1_sap_18_mot_HHH_b1_03273_000000263_0001_1_14_H_._HEEHE_2123_0001_0000200014_0000001_0_0001_af2pred_0001 (protein)
chain: SSSSSSNEEETHARALIFFAKYATNPDAARIALELAEEILEKLNNEELLKEVRRLLEELSSSSSS
B19: il10ra_site1_sap_20_mot_HHH_b2_07440_af2_000000021_0001_1_18_H_._HHH_b1_07372_0001_0000200039_0000001_1_0001_af2pred_0001 (protein)
chain: SSSSDEELEEEIEELLREVEELGNPLIAESIRRLLEDFRQHGDPDLLELAREATELARKAGSSSS
B20: il10ra_site1_sap_15_mot_HHH_b2_05686_000000041_0001_1_18_H_._HHH_b1_05100_af2_0001_0000100001_0000001_0_0001 (protein)
chain: SSSSDEEERLKELEEEIKEAIENNDTHEALHLVYELVRLAAELNDEEVLELAQELIKEVTSSSSS
B21: il10ra_site1_sap_21_mot_HHH_b2_07569_000000265_0001_38_56_H_._HHH_b2_01727_0001_0000300026_0000002_0_0001 (protein)
chain: SSSSYEKVKEALREAVELQENGNPEEAQKLLERLLEELEEEGDWATLKAVEHLLKLVEQRSSSSS
B22: il10ra_site1_normal_mot_HHH_b2_03568_000000058_0001_1_19_H_._HHH_b2_03434_0001_0000200026_0000001_0 (protein)
chain: SSSSDEAYELAREAIKEIKRLFEEGNKEEAEEFAEEVREQLEKLGNPAAVFAIEHLIRRLSSSSS
B23: il10ra_site1_normal_mot_HHH_b2_01447_af2_000000258_0001_1_20_H_._HHH_b2_04530_0001_0000500037_0000001_1_af2pred_0001 (protein)
chain: SSSSNEDSERVIELIRLVAELEREGDKEEAEEVLREAEEIAEENNNLVLRASLEHLRRLLSSSSS
B24: il10ra_site1_normal_mot_HHH_b2_08186_000000021_0001_43_56_H_._HHH_b2_03966_af2_0001_0000100002_0000002_0 (protein)
chain: SSSSDEEKERIEELLEEARERYEEGDPERVRELLLEALQLAYRIQDPELLQEIWELLKELSSSSS

The binders below were run against il10ra, Q13651 (assay: yeast display titration).

Apparent Kd, inactive:
B1 no binding seen
B2 no binding seen
B3 no binding seen
B4 no binding seen
B5 no binding seen
B6 no binding seen
B7 no binding seen
B8 no binding seen
B9 no binding seen
B10 no binding seen
B11 no binding seen
B12 no binding seen
B13 no binding seen
B14 no binding seen
B15 no binding seen
B16 no binding seen
B17 no binding seen
B18 no binding seen
B19 no binding seen
B20 no binding seen
B21 no binding seen
B22 no binding seen
B23 no binding seen
B24 no binding seen

Pulled one by one from the list above (two):
Apparent Kd, inactive:
B16 no binding seen
B18 no binding seen
